PubChem BioAssay AID504784 – Drosophila RNAi Screening Center – 2011

Test: 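Search for regulators of lipid droplet storage in oleate-fed fly cells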 (primary screen)
System: Drosophila Kc167 embryonic cells
Reagents: long dsRNA against Drosophila genes, about 250 ng dsRNA per well
Time to read-out: 4 days
Treatment: cells fed 400 µM oleic acid bound to BSA
Read-out: 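Cells imaged and segmented; ratio of lipid droplet area to nuclear area, log-transformed, then normalised as a B-score over the screen; higher means more stored lipid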
Scale: droplet/nuclear area B-score: higher = more stored lipid (overstorage)
In all, the deposit lists about 17,000 reagents; below is a random part of those with a known target gene and a result. 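Each column is one replicate's B-score; the combined score over replicates was not deposited, so single values may mislead.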 A plus sign joins genes that one reagent is predicted to hit.

target gene	dsRNA	droplet/nuclear area B-score, replicate 1	droplet/nuclear area B-score, replicate 2	droplet/nuclear area B-score, replicate 3
CG5934	DRSC15922	0.128	0.0212	
CG17770 + Acam	DRSC14110	-1.24	-2.04	
CG17770 + Acam	DRSC15264	1.48	-1.13	
Or19a (Odorant receptor 19a)	DRSC20684	-1.8	-1.19	
Ir47a (Ionotropic receptor 47a)	DRSC06215	-0.571	0.0902	
homer	DRSC03547	0.00863	0.142	
Sr-CII (Scavenger receptor class C, type II)	DRSC07557	0.707	-0.525	
Menl-2 + Menl-1	DRSC07469	0.681	-0.0858	
Menl-2 + Menl-1	DRSC07470	-1.23	-1.45	
CG15368	DRSC18040	0.408	-0.0612	0.418
CG15368	DRSC23291	0.304	0.197	
Cpsf5 (Cleavage and polyadenylation specific factor 5)	DRSC10374	-0.697	-0.469	
Dro (Drosocin)	DRSC07406	-0.319		
Decay (Death executioner caspase related to Apopain/Yama)	DRSC16930	1.06	0.0994	
tweek	DRSC02433	2.63	3.22	
tweek	DRSC02434	-0.525	1.93	
tweek	DRSC02785	-2.49	-1.91	
tweek	DRSC23133	-2.29	-1.23	
SdhA (Succinate dehydrogenase, subunit A (flavoprotein))	DRSC07547	-1.34	-0.369	
Nipped-B	DRSC07815	-0.106	-0.16	
CG5321	DRSC19940	-0.765	-1.16	
CG5321	DRSC22802	0.721	-1.2	
CG31219	DRSC15140	0.67	0.738	
CG4461	DRSC10423	1.45	0.411	
eya (eyes absent)	DRSC03510	1.06	0.0665	
CG31029	DRSC15422	-1.93	1.02	
scrt (scratch)	DRSC08736	1.87	6.4	
scrt (scratch)	DRSC23001	-0.267	-0.681	
Gfrl (Glial cell line-derived neurotrophic family receptor-like)	DRSC15197	-0.0366	0.0964	
Gfrl (Glial cell line-derived neurotrophic family receptor-like)	DRSC15199	-1.4		
Gfrl (Glial cell line-derived neurotrophic family receptor-like)	DRSC15565	-0.0152	-1.34	
Gfrl (Glial cell line-derived neurotrophic family receptor-like)	DRSC15719	-0.284	-0.241	
CG13154	DRSC06279	0.707	-0.594	
CG17230	DRSC15203	1.9	-0.0563	
Rpn12R (Regulatory particle non-ATPase 12-related)	DRSC09842	0.688	0.236	
Dok (Downstream of kinase)	DRSC18204	2.66		
CG11409	DRSC18579	0.38		
CG14022	DRSC02352	0.156	-0.592	
CG31103	DRSC22324	1.48	0.247	
RpL34a (Ribosomal protein L34a)	DRSC15964	0.143	0.326	
CG15022	DRSC08476	-0.478	0.162	
CG42269	DRSC10670	-0.121	0.354	
CG42269	DRSC10672	-0.206	-0.597	
ppk18 (pickpocket 18)	DRSC02216	1.36	-0.129	
Arp3 (Actin-related protein 3)	DRSC09669	-0.0119		
CG33170	DRSC11854	-0.725	-0.108	
CG33170	DRSC22366	-0.499	0.966	
drm (drumstick)	DRSC00277	-0.143	-1.41	
l(2)dtl (lethal-(2)-denticleless)	DRSC04697	-1.2	0.059	
Kr (Kruppel)	DRSC04622	0.479	-0.000593	
CG10311	DRSC14228	-1.39	0.16	
CG14631	DRSC17792	-0.519	1.19	
CG14631	DRSC17941	-0.459	0.00698	
Vmat (Vesicular monoamine transporter)	DRSC06961	-1.1	-0.425	
Vmat (Vesicular monoamine transporter)	DRSC06962	1.92	-0.291	
Vmat (Vesicular monoamine transporter)	DRSC22223	-1.69	-0.582	
CG9876	DRSC04586	-0.33	0.977	
Myb (Myb oncogene-like)	DRSC20260	1.43	0.864	1.21
CG13557	DRSC04195	-2.6	0.0519	
Jon99Ci (Jonah 99Ci)	DRSC16860	0.587	-1.57	
Gat (GABA transporter)	DRSC17144	-0.637	-2.12	
CG7763	DRSC07043	-0.692	-0.863	
CG32055	DRSC10666	-0.607	2.09	
CG15423	DRSC00437	0.477	-0.624	
CG40045	DRSC21232	-0.153	0.404	
zf30C (zinc finger protein 30C)	DRSC03641	-0.43	-0.707	
Pop2	DRSC10537	3.84	1.37	
Elo68alpha (Elongase 68alpha)	DRSC22725	0.0253	2.22	
CG2875	DRSC18231	0.392		
MTF-1 (Metal response element-binding Transcription Factor-1)	DRSC11217	0.0252	-0.42	-1.66
MTF-1 (Metal response element-binding Transcription Factor-1)	DRSC21341	0.493	-1	
CG8229	DRSC07114	-0.217	0.35	
Meltrin	DRSC16274	-0.0147	2.07	
Meltrin	DRSC21693	-0.477	-0.594	
CG9986	DRSC16586	1.17		
PIG-Wa (Phosphatidylinositol glycan anchor biosynthesis class W a)	DRSC00728	0.819	-0.0073	
GstT2 (Glutathione S transferase T2)	DRSC06244	0.312	0.184	
CG31013	DRSC16542	1.29	0.0275	
CG2121	DRSC06819	1.12		
CG2121	DRSC06820	-0.719	0.0393	
Nop60B (Nucleolar protein at 60B)	DRSC04627	0.0836	0.368	
sloth2 + sloth1	DRSC17922	-0.423	-0.746	
sloth2 + sloth1	DRSC17923	-0.000378		
Gpdh3 (Glycerol-3-phosphate dehydrogenase 3)	DRSC13561	-1.6	-1.56	
Gpdh3 (Glycerol-3-phosphate dehydrogenase 3)	DRSC15325	-0.977	-0.936	
CG6900 (retired record)	DRSC20018	1.86	-0.353	
CG11357	DRSC08183	1.67	1.71	
CngB (Cyclic nucleotide-gated ion channel subunit B)	DRSC04297	-3.1	0.821	
Chc (Clathrin heavy chain)	DRSC20229	0.414	0.429	0.074
mRpS16 (mitochondrial ribosomal protein S16)	DRSC07152	-1.28	0.91	
Pih1D1 (PIH1 domain containing 1)	DRSC02897	0.454	1.14	
st (scarlet)	DRSC11399	-0.98	1.88	1.09
CG1344	DRSC04837	0.913	0.802	
CG13743	DRSC05139	5.99	0.21	
CG13743	DRSC06414	3.58	3.63	
CG13743	DRSC22775	0.366	-0.171	
CG9547	DRSC03260	0.981	0.278	
btd (buttonhead)	DRSC18747	-0.428	1.6	0.0779
CG1889 + CG43386	DRSC17979	-0.921	-0.0367	-0.346
CG33012	DRSC06287	-0.183	-0.0398	
CG33012	DRSC06288	0.136	0.491	
Trs23 (TRAPP subunit 23)	DRSC03190	3.99	0.346	
Or43a (Odorant receptor 43a)	DRSC07485	-1.29	0.0739	
SCAP (SREBP cleavage activating protein)	DRSC04869	2.25	-2.24	
SCAP (SREBP cleavage activating protein)	DRSC04907	3.15	0.686	

Ordered by “droplet/nuclear area B-score, replicate 1” (highest first): 18 of the entries above
target gene	dsRNA	droplet/nuclear area B-score, replicate 1	droplet/nuclear area B-score, replicate 2	droplet/nuclear area B-score, replicate 3
Pop2	DRSC10537	3.84	1.37	
Vmat (Vesicular monoamine transporter)	DRSC06962	1.92	-0.291	
Myb (Myb oncogene-like)	DRSC20260	1.43	0.864	1.21
Jon99Ci (Jonah 99Ci)	DRSC16860	0.587	-1.57	
Kr (Kruppel)	DRSC04622	0.479	-0.000593	
CG15423	DRSC00437	0.477	-0.624	
CG40045	DRSC21232	-0.153	0.404	
CG9876	DRSC04586	-0.33	0.977	
zf30C (zinc finger protein 30C)	DRSC03641	-0.43	-0.707	
CG14631	DRSC17941	-0.459	0.00698	
CG14631	DRSC17792	-0.519	1.19	
CG32055	DRSC10666	-0.607	2.09	
Gat (GABA transporter)	DRSC17144	-0.637	-2.12	
CG7763	DRSC07043	-0.692	-0.863	
Vmat (Vesicular monoamine transporter)	DRSC06961	-1.1	-0.425	
CG10311	DRSC14228	-1.39	0.16	
Vmat (Vesicular monoamine transporter)	DRSC22223	-1.69	-0.582	
CG13557	DRSC04195	-2.6	0.0519	
